Values from PubChem BioAssay AID1259254 (NCATS, 2017).

Purpose: 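Gene knock-downs that lead to re-replication, shown by excess G2 DNA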 (primary screen)
Cell system: human HCT116 colorectal cancer cells
Reagent: single siRNA against human genes
Duration: 3 days
Detection: 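Imaged Hoechst DNA stain sorts each cell into a cycle phase by DNA amount; per plate, G2 fraction set to 0% for non-targeting and 100% for GMNN siRNA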
Reading the numbers: G2 robust z-score: higher = more G2 cells, more excess DNA replication
Call rule: 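Active siRNAs have a G2 robust z of 5 or more median absolute deviations over the median, which in these data means about 38% or higher of GMNN control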
Here is an unselected part of about 59,000 deposited reagents. About 1,550 of them (2.6%) were called active. 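G2 share is only a proxy for re-replication; each gene was hit by three separate siRNAs, and active genes were retested.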 A number with no mark means an inactive call. Reagents against one gene are numbered here. Further read-outs or replicates are left out here. Not stated in the record: the amount of reagent.

| target | siRNA no. | G2 robust z-score |
| --- | --- | --- |
| NAA16 (GeneID 79612) | 1 | -0.291 |
| NAA16 (GeneID 79612) | 2 | -0.484 |
| NAA16 (GeneID 79612) | 3 | 0.0447 |
| IQCB1 (GeneID 9657) | 1 | -0.51 |
| IQCB1 (GeneID 9657) | 2 | 1.42 |
| IQCB1 (GeneID 9657) | 3 | -0.167 |
| PSMA6 (GeneID 5687) | 1 | 1.93 |
| PSMA6 (GeneID 5687) | 2 | 4.1 |
| PSMA6 (GeneID 5687) | 3 | 1.33 |
| FBXO47 (GeneID 494188) | 1 | 1.03 |
| FBXO47 (GeneID 494188) | 2 | -0.187 |
| FBXO47 (GeneID 494188) | 3 | 0.233 |
| OPA1 (GeneID 4976) | 1 | -1.27 |
| OPA1 (GeneID 4976) | 2 | -0.625 |
| OPA1 (GeneID 4976) | 3 | -0.753 |
| PLEKHA2 (GeneID 59339) | 1 | -0.404 |
| PLEKHA2 (GeneID 59339) | 2 | -0.246 |
| PLEKHA2 (GeneID 59339) | 3 | 0.443 |
| DNAH10 (GeneID 196385) | 1 | 1.42 |
| DNAH10 (GeneID 196385) | 2 | 1.62 |
| DNAH10 (GeneID 196385) | 3 | -0.346 |
| WDR44 (GeneID 54521) | 1 | -0.214 |
| WDR44 (GeneID 54521) | 2 | 0.973 |
| WDR44 (GeneID 54521) | 3 | 1.18 |
| CCNG1 (GeneID 900) | 1 | 0.363 |
| CCNG1 (GeneID 900) | 2 | 3.42 |
| CCNG1 (GeneID 900) | 3 | 1.11 |
| PLP1 (GeneID 5354) | 1 | 0.915 |
| PLP1 (GeneID 5354) | 2 | 1.46 |
| PLP1 (GeneID 5354) | 3 | 0.525 |
| GOPC (GeneID 57120) | 1 | 0.00401 |
| GOPC (GeneID 57120) | 2 | -0.396 |
| GOPC (GeneID 57120) | 3 | -0.285 |
| SSX2IPP1 (GeneID 644681) | 1 | -0.984 |
| SSX2IPP1 (GeneID 644681) | 2 | -0.645 |
| SSX2IPP1 (GeneID 644681) | 3 | 3.23 |
| PDHB (GeneID 5162) | 1 | -1.09 |
| PDHB (GeneID 5162) | 2 | 1.49 |
| PDHB (GeneID 5162) | 3 | 3.78 |
| SPCS2 (GeneID 9789) | 1 | 2.34 |
| SPCS2 (GeneID 9789) | 2 | 0.802 |
| SPCS2 (GeneID 9789) | 3 | -0.124 |
| SELENOW (GeneID 6415) | 1 | 0.834 |
| SELENOW (GeneID 6415) | 2 | -0.803 |
| SELENOW (GeneID 6415) | 3 | 1.47 |
| ZNF292 (GeneID 23036) | 1 | -0.361 |
| ZNF292 (GeneID 23036) | 2 | 2.6 |
| ZNF292 (GeneID 23036) | 3 | 4.53 |
| NSUN5 (GeneID 55695) | 1 | -0.0437 |
| NSUN5 (GeneID 55695) | 2 | -0.842 |
| NSUN5 (GeneID 55695) | 3 | -0.508 |
| C3P1 (GeneID 388503) | 1 | -1.37 |
| C3P1 (GeneID 388503) | 2 | -0.774 |
| C3P1 (GeneID 388503) | 3 | -0.365 |
| OR4F15 (GeneID 390649) | 1 | -0.244 |
| OR4F15 (GeneID 390649) | 2 | -0.0975 |
| OR4F15 (GeneID 390649) | 3 | 4.87 |
| PHAF1 (GeneID 80262) | 1 | -0.272 |
| PHAF1 (GeneID 80262) | 2 | -0.022 |
| PHAF1 (GeneID 80262) | 3 | -1.12 |
| DNAAF3 (GeneID 352909) | 1 | -0.521 |
| DNAAF3 (GeneID 352909) | 2 | 0.379 |
| DNAAF3 (GeneID 352909) | 3 | -0.91 |
| CXorf66 (GeneID 347487) | 1 | -0.945 |
| CXorf66 (GeneID 347487) | 2 | 5.73 (active) |
| CXorf66 (GeneID 347487) | 3 | 1.38 |
| ARRDC2 (GeneID 27106) | 1 | 1.63 |
| ARRDC2 (GeneID 27106) | 2 | 1.05 |
| ARRDC2 (GeneID 27106) | 3 | 5.31 (active) |
